Publication PMC11994759
No constants are given. Whether binding was seen depends on the method and setting. Binding seen in cells or lysates may run through a third protein. Some results given as binding are weak or reduced against the parent protein; the word gives no strength. For part of these data: Where a sequence is shown, tags or fusion partners need not be part of it.

Amino acid sequences for entries named in this document (tags omitted).
UniProt Q15149: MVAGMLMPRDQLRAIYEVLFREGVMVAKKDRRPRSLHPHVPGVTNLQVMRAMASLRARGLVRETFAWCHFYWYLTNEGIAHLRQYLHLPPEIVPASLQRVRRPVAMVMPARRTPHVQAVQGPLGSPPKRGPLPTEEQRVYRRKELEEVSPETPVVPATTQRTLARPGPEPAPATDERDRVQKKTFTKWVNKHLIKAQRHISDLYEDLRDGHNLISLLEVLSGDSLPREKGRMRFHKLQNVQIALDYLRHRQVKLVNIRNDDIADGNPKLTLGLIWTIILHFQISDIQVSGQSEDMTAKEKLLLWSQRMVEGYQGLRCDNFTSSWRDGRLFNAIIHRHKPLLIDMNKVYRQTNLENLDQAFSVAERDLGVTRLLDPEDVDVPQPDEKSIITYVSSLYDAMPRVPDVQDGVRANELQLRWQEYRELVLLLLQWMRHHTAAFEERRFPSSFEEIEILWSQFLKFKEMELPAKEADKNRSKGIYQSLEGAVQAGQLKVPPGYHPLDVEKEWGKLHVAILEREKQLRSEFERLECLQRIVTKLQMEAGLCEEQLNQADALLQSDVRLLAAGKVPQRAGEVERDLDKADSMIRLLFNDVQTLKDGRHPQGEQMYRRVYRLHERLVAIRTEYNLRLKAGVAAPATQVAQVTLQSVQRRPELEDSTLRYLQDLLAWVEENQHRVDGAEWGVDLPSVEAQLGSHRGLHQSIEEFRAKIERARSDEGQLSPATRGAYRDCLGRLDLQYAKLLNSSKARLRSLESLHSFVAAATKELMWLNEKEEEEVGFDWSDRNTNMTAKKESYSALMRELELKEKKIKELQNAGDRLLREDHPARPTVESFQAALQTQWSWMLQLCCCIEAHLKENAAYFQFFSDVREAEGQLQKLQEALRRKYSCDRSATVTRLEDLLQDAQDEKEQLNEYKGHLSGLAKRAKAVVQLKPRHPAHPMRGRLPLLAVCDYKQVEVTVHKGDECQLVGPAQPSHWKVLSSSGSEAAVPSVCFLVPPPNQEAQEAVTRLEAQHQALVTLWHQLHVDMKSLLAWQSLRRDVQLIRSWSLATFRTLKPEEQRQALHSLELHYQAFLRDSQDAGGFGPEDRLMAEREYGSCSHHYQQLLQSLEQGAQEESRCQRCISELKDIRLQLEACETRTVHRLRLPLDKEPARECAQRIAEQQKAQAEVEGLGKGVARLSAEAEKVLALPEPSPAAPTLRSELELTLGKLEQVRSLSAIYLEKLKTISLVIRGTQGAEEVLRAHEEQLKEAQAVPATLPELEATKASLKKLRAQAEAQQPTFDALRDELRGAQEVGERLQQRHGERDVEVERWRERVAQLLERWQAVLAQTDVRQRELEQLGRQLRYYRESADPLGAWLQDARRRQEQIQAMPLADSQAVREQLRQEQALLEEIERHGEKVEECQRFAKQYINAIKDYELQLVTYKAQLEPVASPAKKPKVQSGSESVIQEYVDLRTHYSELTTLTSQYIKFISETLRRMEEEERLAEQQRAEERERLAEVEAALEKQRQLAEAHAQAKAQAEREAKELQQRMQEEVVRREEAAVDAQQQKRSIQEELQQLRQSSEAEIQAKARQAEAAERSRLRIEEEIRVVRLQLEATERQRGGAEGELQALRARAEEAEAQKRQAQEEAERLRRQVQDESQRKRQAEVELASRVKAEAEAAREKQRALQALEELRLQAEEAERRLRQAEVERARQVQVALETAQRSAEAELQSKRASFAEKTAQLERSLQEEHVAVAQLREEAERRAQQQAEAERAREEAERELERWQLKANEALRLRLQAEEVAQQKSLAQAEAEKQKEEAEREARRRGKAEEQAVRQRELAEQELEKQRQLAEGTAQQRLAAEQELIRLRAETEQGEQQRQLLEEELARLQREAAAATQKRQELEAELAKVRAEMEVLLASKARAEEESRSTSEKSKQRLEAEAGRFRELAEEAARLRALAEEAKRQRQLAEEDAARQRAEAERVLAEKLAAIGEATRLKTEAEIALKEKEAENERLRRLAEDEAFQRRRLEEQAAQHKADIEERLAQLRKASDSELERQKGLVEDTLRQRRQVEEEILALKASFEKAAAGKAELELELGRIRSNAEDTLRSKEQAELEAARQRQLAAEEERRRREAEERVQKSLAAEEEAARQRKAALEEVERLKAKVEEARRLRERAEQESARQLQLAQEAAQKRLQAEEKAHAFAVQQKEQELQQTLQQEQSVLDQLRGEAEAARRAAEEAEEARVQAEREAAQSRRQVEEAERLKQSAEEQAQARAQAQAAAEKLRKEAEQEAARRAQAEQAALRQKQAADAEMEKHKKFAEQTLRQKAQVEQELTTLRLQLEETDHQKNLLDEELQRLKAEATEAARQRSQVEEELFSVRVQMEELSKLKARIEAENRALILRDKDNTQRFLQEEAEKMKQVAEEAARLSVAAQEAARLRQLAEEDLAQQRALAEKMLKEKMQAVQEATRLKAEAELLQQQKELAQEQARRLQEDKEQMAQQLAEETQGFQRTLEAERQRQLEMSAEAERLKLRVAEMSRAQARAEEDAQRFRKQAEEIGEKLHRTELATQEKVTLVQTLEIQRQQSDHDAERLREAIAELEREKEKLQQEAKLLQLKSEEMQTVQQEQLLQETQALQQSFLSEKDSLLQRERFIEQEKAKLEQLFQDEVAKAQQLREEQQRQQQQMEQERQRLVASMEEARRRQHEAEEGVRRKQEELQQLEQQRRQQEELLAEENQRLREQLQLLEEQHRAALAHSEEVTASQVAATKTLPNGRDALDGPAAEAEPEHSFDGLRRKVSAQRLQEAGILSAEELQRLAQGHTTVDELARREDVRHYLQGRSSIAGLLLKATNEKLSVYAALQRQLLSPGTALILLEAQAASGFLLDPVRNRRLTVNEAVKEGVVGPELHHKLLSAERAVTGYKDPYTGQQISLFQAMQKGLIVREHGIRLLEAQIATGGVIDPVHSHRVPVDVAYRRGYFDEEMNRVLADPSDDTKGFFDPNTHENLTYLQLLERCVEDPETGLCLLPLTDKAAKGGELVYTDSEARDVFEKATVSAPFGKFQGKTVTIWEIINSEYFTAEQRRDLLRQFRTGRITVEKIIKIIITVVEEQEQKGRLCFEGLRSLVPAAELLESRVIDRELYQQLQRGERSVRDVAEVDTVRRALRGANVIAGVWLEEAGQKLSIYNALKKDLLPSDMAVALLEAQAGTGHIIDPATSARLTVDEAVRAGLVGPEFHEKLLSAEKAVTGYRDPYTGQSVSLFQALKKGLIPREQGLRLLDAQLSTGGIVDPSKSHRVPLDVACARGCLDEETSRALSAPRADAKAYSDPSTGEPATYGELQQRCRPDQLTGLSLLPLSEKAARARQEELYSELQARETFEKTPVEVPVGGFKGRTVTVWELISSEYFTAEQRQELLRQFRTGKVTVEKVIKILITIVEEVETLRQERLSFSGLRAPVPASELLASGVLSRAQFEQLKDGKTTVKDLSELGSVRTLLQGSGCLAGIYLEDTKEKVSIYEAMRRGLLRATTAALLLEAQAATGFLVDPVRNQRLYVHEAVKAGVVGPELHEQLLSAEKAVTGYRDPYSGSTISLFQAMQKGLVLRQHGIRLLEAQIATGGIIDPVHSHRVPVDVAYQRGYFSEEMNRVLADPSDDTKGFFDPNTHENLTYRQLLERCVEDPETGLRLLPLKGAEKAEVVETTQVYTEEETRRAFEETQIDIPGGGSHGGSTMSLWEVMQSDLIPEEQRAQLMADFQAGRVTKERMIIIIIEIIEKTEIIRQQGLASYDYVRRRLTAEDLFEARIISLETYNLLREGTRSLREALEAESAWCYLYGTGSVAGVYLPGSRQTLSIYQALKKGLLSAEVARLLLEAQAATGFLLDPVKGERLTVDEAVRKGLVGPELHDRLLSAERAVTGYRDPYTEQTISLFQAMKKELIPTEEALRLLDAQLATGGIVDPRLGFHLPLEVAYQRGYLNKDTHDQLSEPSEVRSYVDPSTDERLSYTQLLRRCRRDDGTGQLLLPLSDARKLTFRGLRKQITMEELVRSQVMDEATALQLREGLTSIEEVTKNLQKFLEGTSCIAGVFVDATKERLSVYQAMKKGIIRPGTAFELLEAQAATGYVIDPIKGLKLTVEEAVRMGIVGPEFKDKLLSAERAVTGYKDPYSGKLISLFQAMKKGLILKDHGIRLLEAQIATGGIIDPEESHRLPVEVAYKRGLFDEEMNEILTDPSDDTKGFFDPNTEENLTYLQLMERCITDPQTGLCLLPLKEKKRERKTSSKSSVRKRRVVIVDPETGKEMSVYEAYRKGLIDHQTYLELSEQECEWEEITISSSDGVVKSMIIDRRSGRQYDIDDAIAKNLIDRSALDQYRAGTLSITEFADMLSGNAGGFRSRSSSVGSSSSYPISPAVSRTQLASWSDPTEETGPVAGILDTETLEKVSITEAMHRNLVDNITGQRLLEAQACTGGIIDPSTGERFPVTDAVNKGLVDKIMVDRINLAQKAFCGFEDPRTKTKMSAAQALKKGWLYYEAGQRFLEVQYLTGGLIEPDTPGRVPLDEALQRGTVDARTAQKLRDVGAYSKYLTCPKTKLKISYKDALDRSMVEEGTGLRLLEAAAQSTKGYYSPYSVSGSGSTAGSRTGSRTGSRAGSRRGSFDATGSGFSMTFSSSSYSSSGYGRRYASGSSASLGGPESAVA

Key:
[1] = molecular target: T1, Rap2B (endogenous) (human (endogenous in U2OS and LOVO or HCT116)) (UniProt P61225); experiment: co-IP; endogenous Rap2B and endogenous plectin in U2OS and LOVO cells (legend: U2OS and HCT116); 0.1% NP-40 lysis buffer, primary antibody overnight at 4 °C, protein A/G magnetic beads
T1 sequence: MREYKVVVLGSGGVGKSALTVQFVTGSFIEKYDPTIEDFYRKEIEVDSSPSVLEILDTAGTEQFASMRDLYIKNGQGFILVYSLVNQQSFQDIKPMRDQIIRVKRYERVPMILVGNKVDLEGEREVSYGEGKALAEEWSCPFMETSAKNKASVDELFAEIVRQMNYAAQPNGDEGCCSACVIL

[2] = molecular target: T2, Flag-tagged Rap2B (wild type), ectopically expressed (UniProt P61225); experiment: co-IP; ectopically expressed Rap2B or C180A mutant (adenovirus) and endogenous plectin in LOVO cells; 0.1% NP-40 lysis buffer, primary antibody overnight at 4 °C, protein A/G magnetic beads
T2 sequence: T1 sequence

[3] = molecular target: T2, Flag-tagged Rap2B (wild type), ectopically expressed; experiment: co-IP; ectopically expressed Rap2B and endogenous plectin in HCT116 cells; 0.1% NP-40 lysis buffer, primary antibody overnight at 4 °C, protein A/G magnetic beads

Measured: binding

plectin (endogenous) (from UniProt Q15149 1-4684)
binds: all assays above
